## Screening data, single-dose tests

Values are the deposited “Percent Effect”, in %.
The controls that fix the scale are not given in the record; negative values are as filed.
The compounds are a random part of those screened.
Two or more numbers in one place are separate tests of the same structure; such repeats can differ widely.

Mtb cholesterol medium: 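Whole-cell growth test on Mycobacterium tuberculosis, read after 4 days in a medium based on cholesterol and the lipid DPPC; the read-out is not stated. Compounds at 50 µM. Higher reads as more growth inhibition (inferred: compounds with an IC50 in retests scored well above the rest). Of about 69,000 compounds tested this way, about 370 (0.54%) reached 50% or more in at least one test.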
Mtb glucose medium: 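Growth of Mycobacterium tuberculosis over 3 days (7H9 medium with glucose and tyloxapol); the read-out is not stated. Compounds at 50 µM. The record gives no direction; compounds that gave an IC50 in retests scored well above the rest, so higher reads as more growth inhibition. Of about 69,000 compounds tested this way, about 760 (1.1%) reached 50% or more in at least one test.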

Compound | Mtb cholesterol medium | Mtb glucose medium
COc1cccc(-n2cc(-c3ccnc(N[C@@H](CO)C(C)C)n3)cn2)c1 | 15.89% | -6.185%
Nc1cc(-c2cccs2)nn(CC(=O)NCC2CCCCC2)c1=O | 6.668% | 11.8%
Cl.O=C(NCC1CCC2(CCNCC2)O1)C1CC1 (stereo unspecified) | 11.97% | -14.42%
O=C(Cc1csc(-c2ccco2)n1)N1CCSCC1 | 5.727% | -1.925%
Cn1cc(Cl)cc1C(=O)N1CCC2(CCCN(CC3CC3)C2=O)C1 (stereo unspecified) | 0.5565% & -40.02% | -41.66%
Cc1nc(C)n(CC2CCCN2Cc2nc(C)c3ccccc3n2)n1 (stereo unspecified) | 6.382% | -5.279%
CN1CC2(CCNCC2)COc2ccccc2S1(=O)=O | -13.64% | 22.61%
CN(C)S(=O)(=O)NCC1CCN(Cc2ccccc2F)CC1 | 5.86% | -5.043%
CCn1ncnc1C(C)Nc1cc(C2CCNCC2)nc(C)n1 (stereo unspecified) | -10.36% | -10.34%
CC(C)(NS(C)(=O)=O)C(=O)NCCc1csc2ccccc12 | 0.454% | 35.56%
CN(C)S(=O)(=O)N1CC(c2nc(N)ncc2-c2ccc(F)cc2)C1 | 5.627% | 13.89%
CCCc1nc(CN2CCCN(Cc3nccn3C)CC2)no1 | -12.67% | -19.3%
CCc1nccn1C1CCCN(C(=O)c2ccc(OC)c(OC)c2)C1 (stereo unspecified) | -14.68% | 11.63%
CCOC(=O)C(C)NC(=O)CCSc1ccc(F)cc1 (stereo unspecified) | 12.39% | 4.493% & 26.34%
Cn1cnnc1C1CCCN(C(=O)c2n[nH]c3ccccc23)C1 (stereo unspecified) | 1.504% | 14.22%
CC1(C)CN(C(CNS(N)(=O)=O)c2ccc(Cl)cc2)CCO1 (stereo unspecified) | -14.93% | 3.9%
COCc1nc(C(=O)N2CCCC2c2noc(C)n2)cs1 (stereo unspecified) | -11.18% | 3.42%
Cc1cc(C)n(CC2CCCN2CC(=O)Nc2nncs2)n1 (stereo unspecified) | -35.33% | -15.35%
Cn1cc(C2CCCN2C(=O)c2cnc(-c3ncccn3)s2)cn1 (stereo unspecified) | -12.67% & -16.15% | -6.319%
Cl.O=C(Nc1cc(C(F)(F)F)c[nH]c1=O)C1CCCCN1 (stereo unspecified) | 13.82% | 28.08%
O=C(NC1(C(=O)NCC2CC2)CCCC1)C1Cc2cc(F)ccc2O1 (stereo unspecified) | -13.87% | -38.23%
[H][C@@]12C[C@@H](Oc3cccnc3)CN1CCN(Cc1ccccn1)C2 | 2.736% | 14.61% & 6.79%
CSCC(=O)N1CCCN(c2ccccc2C)CC1 | 7.486% | 24.21%
CCN1CCC2(CCC1=O)CN(c1nccc(N)n1)CCN2C (stereo unspecified) | 2.279% & 10.74% | 5.288%
Cc1cnn(CCNCc2nc(-c3ccsc3)oc2C)c1 | -9.232% | 2.72% & -2.869%
Cc1ccc([C@@H]2CN(C(=O)c3cccnn3)C[C@H]2NC(=O)C2CC2)cc1 | -19.53% | -8.206%
CCC(CC)NC(=O)c1ccc2c(c1)C(c1nc[nH]n1)CN2S(C)(=O)=O (stereo unspecified) | -14.05% | -13.79%
Cc1cc(NC(C)Cc2cccnc2)n2nccc2n1 (stereo unspecified) | -8.352% | -1.805% & -15.53%
Fc1cccnc1CN1CCCCC1c1ccn2ccnc2n1 (stereo unspecified) | -7.851% | 10.69%
O=C(NCc1cccc(F)c1)NC1CCCN(c2ncccn2)C1 (stereo unspecified) | -12.25% | 16.9%
Cc1cccc(C(=O)N(C)CC(=O)N2CCCC2)c1C | 1.857% | 12.11% & -5.277%
Cc1cc(=O)c(C(=O)N2CCC(C(O)Cc3ccccc3)CC2)c(C)[nH]1 (stereo unspecified) | 8.78% | 2.112% & -2.505%
COc1ccc(CC(=O)NC(C)c2nc3cccnc3n2C(C)C)cc1 (stereo unspecified) | 7.612% | 6.728%
CCNC(=O)[C@@H]1C[C@@H](NC(=O)c2cccnc2O)CN1Cc1ccsc1 | 0.02694% | 17.92%
CO[C@H]1CN(C(C)C)C[C@@H]1NC(=O)Nc1ccc2oc(C)cc2c1 | -19.49% | -13.53%
CN1CCN(C2COC3(CCN(c4ccc(C#N)cc4)CC3)C2)CC1.O=C(O)C(F)(F)F (stereo unspecified) | 17.88% | 22.41%
CNc1cccc(C2CCCN(C(=O)c3coc(C)n3)C2)n1 (stereo unspecified) | -9.37% | -8.362%
CCC(C)NC(=O)c1ccc(-c2ccco2)[nH]c1=O (stereo unspecified) | -5.264% | -18.51%
O=C(O)C(F)(F)F.[H][C@@]12CN(C(=O)c3cccc(C)n3)C[C@]1([H])[C@@H]2CC(=O)NC(C)C | -1.462% | 2.019%
O=C(O)C(F)(F)F.[H][C@@]12CN(Cc3nccs3)C[C@@H](C(=O)N3CCOCC3)[C@]1([H])CCO2 | 2.319% & -9.919% | -18.7%
CCn1ncnc1CN1CCOC(Cc2cccc3ccccc23)C1 (stereo unspecified) | 4.538% & -6.569% | 10.97% & 10.48%
CCCc1n[nH]c(C2CN(C(=O)c3n[nH]c4ccccc34)CCO2)n1 (stereo unspecified) | 0.6547% | -11.95%
[H][C@@]12C[C@H](C(=O)N3CCCC3)[C@@]([H])(CN(C(=O)Nc3ccc(F)cc3)C1)O2 | 14.94% | 22.87%
Cl.[H][C@]12CN(C(=O)NCC3CCCCC3)[C@]([H])(CN1)C2 | 3.989% | -44.1%
NC(=O)c1ccnc(N2CCN(Cc3ccc(F)cc3Cl)CC2)c1 | -3.449% | 27.58% & -1.948%
CCc1noc(CN(Cc2cccs2)CC2CCCO2)n1 (stereo unspecified) | 19.73% | 31.55%
CC(C)(C)c1n[nH]c(C2CN(CCc3cccs3)CCO2)n1 (stereo unspecified) | -9.944% | -21.63%
CNS(=O)(=O)c1cccc(C(C)NCc2ccc(F)c(F)c2)c1 (stereo unspecified) | -4.298% | -6.634% & -2.316%
CC(C)(C)n1cc(C2=CCN(CCc3ccccc3)CC2)cn1 | 2.421% | 6.516% & 8.261%
O=C1CC(c2ccccc2)c2c(c(C(=O)O)cn2-c2ccccc2)N1 (stereo unspecified) | -2.906% | 7.205%
N[C@H]1CN(C(=O)CCc2cc(Cl)no2)C[C@@H]1c1ccccc1 | -18.79% | -36.45%
O=C(O)C(F)(F)F.[H][C@]12CN(Cc3cccc(Cl)c3)C[C@@]1([H])OCCN(C(C)=O)C2 | -6.617% | -7.269%
Cc1cc(CNC2(c3ccccc3)CCCCC2)no1 | -4.091% | 15.58%
COCCN1CC(C(=O)NCc2cccnc2-n2cccn2)CC1=O (stereo unspecified) | -4.705% | -2.435%
CCc1ncncc1C(=O)N1CCCN(Cc2ccccc2C)CC1 | 4.303% | 28.52%
COCCOc1ccc(NC(=O)N2CCCC2c2cc(C)no2)cn1 (stereo unspecified) | -7.455% | 14.65%
N#Cc1cccc(S(=O)(=O)NC(=O)C2CC(c3ccccc3)=NO2)c1 (stereo unspecified) | 6.57% | -1.244% & -0.7417%
O=C(c1cccs1)N1CCC(Cn2nc(-c3ccco3)ccc2=O)CC1 | -12.86% | -7.701%
CCC(C)N1Cc2c(C(=O)N3CCCC3)nn(C)c2C1.O=C(O)C(F)(F)F (stereo unspecified) | 2.648% | 8.501% & 5.577%
COc1ccc(-n2nnnc2C2(NCc3ccco3)CCCCC2)cc1 | -8.04% | -6.373%
COCCN1CCN(CC(=O)N(C)Cc2ccc(F)cc2)CC1C (stereo unspecified) | -27.76% | -35.88%
Cc1cccc(CN2CCN(C(=O)c3cc(C4CC4)[nH]n3)CC2)c1 | 66.4% | 68.76% & 58.57%
CC(C)Oc1ccc2c(NC(=O)[C@H](C)O)nn(CC(F)(F)F)c2c1 | -0.1911% | -1.293%
CC(=O)N1CCN(Cc2ccco2)CC2(CC(=O)N(C)C2)C1.O=C(O)C(F)(F)F (stereo unspecified) | -11.67% & -11.31% | -37.89%
CCN1CCCC(CNC(=O)CCc2ccc(OC)c(F)c2)C1 (stereo unspecified) | -24.18% | -0.9205% & -30.5%
CN(C)CCN(C)C(=O)Nc1cc(F)cc(N2CCCC2)c1 | 1.654% | 13.89%
CN1CCN(C(=O)c2cc(NC(=O)c3ccccc3)n(C)n2)CC1 | -13.53% | -6.255%

For reference, 6 entries once more:

Cc1nc(C)n(CC2CCCN2Cc2nc(C)c3ccccc3n2)n1 (stereo unspecified) gave Mtb cholesterol medium: 6.382%; Mtb glucose medium: -5.279%.
Cc1cnn(CCNCc2nc(-c3ccsc3)oc2C)c1 gave Mtb cholesterol medium: -9.232%; Mtb glucose medium: 2.72% & -2.869%.
CN(C)CCN(C)C(=O)Nc1cc(F)cc(N2CCCC2)c1 gave Mtb cholesterol medium: 1.654%; Mtb glucose medium: 13.89%.
N[C@H]1CN(C(=O)CCc2cc(Cl)no2)C[C@@H]1c1ccccc1 gave Mtb cholesterol medium: -18.79%; Mtb glucose medium: -36.45%.
COc1ccc(-n2nnnc2C2(NCc3ccco3)CCCCC2)cc1 gave Mtb cholesterol medium: -8.04%; Mtb glucose medium: -6.373%.
CC(C)Oc1ccc2c(NC(=O)[C@H](C)O)nn(CC(F)(F)F)c2c1 gave Mtb cholesterol medium: -0.1911%; Mtb glucose medium: -1.293%.

Data taken from ChEMBL document CHEMBL3988442, “University of Dundee, Small-Polar-MMV Screening Library” (2021).